Data taken from patent US6068687A, “Azo dyes and their preparation and use” (Ilford Imaging Switzerland GmbH, priority 1997, dated 2000).

Key:
[1] = Image quality of printed images (sharpness and optical density); set-up: key: ⊕: No blurring and high density; .diamond.: Slight blurring and high density; .O slashed.: Severe blurring and low density; conditions: gelatin coated recording medium
Method: (§1) 100 g of each ink were prepared by heating the necessary components from Table 3 (all amounts are indicated in grams) together with water at a temperature of 50° C. under stirring for one hour. The resulting solution was cooled down to 20° C., its pH value was adjusted to 7.5 and the solution was passed through a Millipore® filter of 0.5 μm pore diameter.
(§2) A recording medium for testing purposes was prepared in the following way: 30 g of gelatin with a high isoelectric point (type St 70,810, available from Deutsche Gelatinefabriken, Eberbach, Germany) were dissolved in 360 ml of deionised water. 1 g of a surfactant (Olin 10G, available from Olin Corporation, Norwalk, USA) were added to this solution. Immediately before coating 6.6 g of a solution of 2-(4-dimethyl-carbamoyl-pyridino)-ethanesulfonate (3%) were added and the pH value was adjusted to 6.5. 100 g/m^2 of this solution was then coated onto a resin coated paper support using a bar coater. The recording medium prepared in this way was dried for 12 hours.
(§3) The inks were then jetted onto this recording medium with a type 3024 IRIS ink jet printer to check their properties during printing as well as the quality of the printed images.
The printed images were evaluated in respect of sharpness and optical density in the following way: […]

[2] = Smudge resistance of printed samples; set-up: key: ⊕: No or little smear; .diamond.: Slight smear; .O slashed.: Severe smear; conditions: dye patch of high density rubbed with slightly wet finger
Method: as §1, §2, §3
The smudge behavior of printed samples was determined by rubbing a dye patch of high density with a slightly wet finger. The smudge resistance is indicated in the following way: […]

[3] = Water fastness of printed samples (bleeding); set-up: key: ⊕: No bleeding; .diamond.: Slight bleeding; .O slashed.: Severe bleeding; conditions: soaked 1 minute, room temperature, deionised water
Method: as §1, §2, §3
The printed samples were soaked for 1 minute at room temperature in deionised water. Afterwards bleeding was evaluated in the following way: […]

[4] = Light fastness of printed samples (density loss); conditions: 6500 W Xenon lamp, total illumination 40 kJoule/cm^2
Method: as §1, §2, §3
The printed samples were irradiated in an ATLAS Ci35A Weather-O-Meter®with a 6500 W Xenon lamp until a total illumination of 40 kJoule/cm^2 was reached. The density loss was measured with an X-Rite® densitometer and evaluated in the following way: […]

Row | SMILES | (E) Image quality [1] | (F) Smudge resistance [2] | (G) Water fastness [3] | (H) Light fastness [4]
1 | CCOc1nc(Nc2ccc(N=Nc3c(N)ccc4cc(S(=O)(=O)O)cc(O)c34)c(S(=O)(=O)O)c2)nc(SCCCS(=O)(=O)O)n1 [(113)] | ⊕ | ⊕ | ⊕ | ⊕ (Less than 10% density loss)
2 | Nc1ccc2cc(S(=O)(=O)O)cc(O)c2c1N=Nc1ccc(Nc2nc(SCCCS(=O)(=O)O)nc(N(CCO)CCO)n2)cc1S(=O)(=O)O [(121)] | ⊕ | ⊕ | ⊕ | ⊕ (Less than 10% density loss)
3 | COc1cc(N=Nc2cc(S(=O)(=O)O)c3cccc(S(=O)(=O)O)c3c2)c(C)cc1Nc1nc(SCCCS(=O)(=O)O)nc(N(C)CCO)n1 [(120)] | ⊕ | ⊕ | ⊕ | ⊕ (Less than 10% density loss)
4 | CCN(c1ccccc1)c1nc(Nc2cc(S(=O)(=O)O)cc3cc(S(=O)(=O)O)c(N=Nc4ccccc4S(=O)(=O)O)c(O)c23)nc(SCCCS(=O)(=O)O)n1 [(117)] | ⊕ | ⊕ | ⊕ | .O slashed. (More than 10% density loss)
5 | COc1cc(N=Nc2cc(S(=O)(=O)O)c3cccc(S(=O)(=O)O)c3c2)c(C)cc1Nc1nc(SCCCS(=O)(=O)O)nc(SCCCS(=O)(=O)O)n1 [(2)] | ⊕ | ⊕ | .diamond. | ⊕ (Less than 10% density loss)
6 | Nc1ccc2cc(S(=O)(=O)O)cc(O)c2c1N=Nc1ccc(Nc2nc(NCCO)nc(Nc3cccc(S(=O)(=O)O)c3)n2)cc1S(=O)(=O)O [(1)] | ⊕ | .diamond. | .diamond. | ⊕ (Less than 10% density loss)
7 | CCOc1nc(Nc2cc(C)c(N=Nc3cc(S(=O)(=O)O)c4cccc(S(=O)(=O)O)c4c3)cc2OC)nc(SCCCS(=O)(=O)O)n1 [(100)] | ⊕ | ⊕ | ⊕ | ⊕ (Less than 10% density loss)
